{"source": "patent US10098967B2", "about": "“Self-assembly of therapeutic agent-peptide nanostructures” (Ohio State Innovation Foundation, priority 2012, dated 2018)", "assay": "TEM imaging of nanotubes diluted in human serum", "format": "in vitro ADME", "settings": "10 mM PBS diluted to 1 mM with human serum", "data": [{"molecule": "CC[C@@]1(OC(=O)CCC(=O)NCCCC[C@H](NC(=O)[C@H](CCCCN)NC(C)=O)C(N)=O)C(=O)OCc2c1cc1n(c2=O)Cc2cc3ccccc3nc2-1", "note": "[C, Ac-KK(CPT)-NH2]", "values": [{"measurement": "presence of nanotubes after 24 h", "result": "nanotubes were present"}]}, {"molecule": "CC[C@@]1(OC(=O)CCC(=O)NCCCC[C@H](NC(=O)[C@@H](N)CCCCN)C(N)=O)C(=O)OCc2c1cc1n(c2=O)Cc2cc3ccccc3nc2-1", "note": "[D, NH2—KK(CPT)-NH2]", "values": [{"measurement": "presence of nanotubes after 24 h", "result": "nanotubes were present"}]}]}
